For two molecules, binding results are on record in paper doi:10.1101/2020.12.09.417345.

These are yes or no findings as the source states them, for the method shown. Binding seen in cells or lysates may run through a third protein. Some entries that bind do so weakly or less than the wild type. Where a sequence is shown, tags or fusion partners need not be part of it.

The target in experiment [1] is T1, SWEET17-cCFP^C (Arabidopsis thaliana) (UniProt Q84WN3).
T1 sequence: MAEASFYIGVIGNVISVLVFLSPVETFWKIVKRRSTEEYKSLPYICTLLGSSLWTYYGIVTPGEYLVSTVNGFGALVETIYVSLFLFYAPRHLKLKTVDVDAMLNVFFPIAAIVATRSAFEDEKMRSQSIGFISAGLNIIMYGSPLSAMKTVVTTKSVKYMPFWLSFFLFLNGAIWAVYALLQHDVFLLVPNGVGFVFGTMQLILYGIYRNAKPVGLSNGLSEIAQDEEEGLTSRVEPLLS
Nature of the experiment: split reporter.

Experiment [2] addresses T2, SWEET17-nCerulean^C (Arabidopsis thaliana) (UniProt Q84WN3).
T2 sequence: T1 sequence
The experiment in a line: split reporter.

B1: SWEET16-nVenus^C (protein, UniProt Q9LUR4 1-230)
chain: MADLSFYVGVIGNVISVLVFLSPVETFWRIVQRRSTEEYECFPYICTLMSSSLWTYYGIVTPGEYLVSTVNGFGALAESIYVLIFLFFVPKSRFLKTVVVVLALNVCFPVIAIAGTRTLFGDANSRSSSMGFICATLNIIMYGSPLSAIKTVVTTRSVQFMPFWLSFFLFLNGAIWGVYALLLHDMFLLVPNGMGFFLGIMQLLIYAYYRNAEPIVEDEEGLIPNQPLLA
In the case of B1, in experiment [1], the binding entry is recorded as “binds”.

B2: SWEET16-cCFP^C (protein, UniProt Q9LUR4 1-230)
chain: B1 chain
On to B2, for which, in experiment [2], the binding entry is given as “binds”.
